A short description of this experiment: qHTS Assay to Find Inhibitors of Chronic Active B-Cell Receptor Signaling. Particulars: ABC-DLBCL IkBa-CBG/CBR reporter, luminescence ratio (green luciferase fused to IkBa over red control in TMD8 lymphoma cells), 4 h. In outline: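 Compounds up to 46 uM were incubated four hours with TMD8 cells whose green CBG68 luciferase is fused to IkappaBalpha; red CBR luminescence normalised the signal, and concentration-effect curves were fitted to fusion, red and ratio data.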
For orientation: In qHTS, concentration-response curves come from the screen itself.

The mark [1] stands for this setting: measured here: CBR red luminescence, cell number.
Setting [2] is: measured here: IkBa-CBG green luminescence.

Some of the results follow. Further columns of the screen follow, without active or inactive calls. Compounds called inactive in the main read-out are mostly missing here. The note in brackets gives the kind of curve behind each potency; many fits are weak.

The AC50 is the concentration at which the activity in the assay is half-maximal.

Consider `CCCOC(=O)Nc1cccc(C(C)=O)c1`, for which the concentration at half-maximal activity (AC50) under setting [1] was 2.31 µM [rising, full curve].

For `Cc1ccc(NC(=O)Cn2c(O)c(N=NC(=O)c3ccncc3)c3ccccc32)cc1`, under setting [1], the half-maximal activity concentration (AC50) was 8.91 µM [rising, partial curve, poor fit]. Take `CCOC(=O)c1ccc(Oc2nc(NC(C)(C)C)nc(N(C)C)n2)cc1`: under setting [1], the AC50 was 29.1 µM [falling, single point]. For `COc1cccc(C(=O)N/N=C2/SCC(=O)N2CCc2ccc(OC)c(OC)c2)c1`, under setting [1], the concentration at half-maximal activity (AC50) was 5.8 µM [falling, single point]. With `COc1ccc(Cl)cc1NC(=O)CN1CCCCCC1`, under setting [1], the half-maximal activity concentration (AC50) was 12.6 µM [falling, partial curve]. Consider `CCCCC1C(=O)CC[C@H]2[C@@H]1CC(=O)[C@@H]2C/C=C\CCCC(=O)O` (stereo partly specified), for which, under setting [2], the concentration at half-maximal activity (AC50) was 5.8 µM [falling, partial curve]. Regarding `O=C(COC(=O)CSc1ccc([N+](=O)[O-])cc1)NCCCc1ccccc1`, the AC50 under setting [1] was 7.94 µM [falling, partial curve]. As for `O=C(COC(=O)/C=C/c1cccs1)Nc1ccccc1Cl`, under setting [1], the AC50 is 0.794 µM [falling, full curve, poor fit].

Take `CC(=O)Nc1cc(C(=O)NCc2ccccc2Cl)ccc1Sc1ccc(F)cc1`: the AC50 under setting [1] was 0.891 µM [rising, full curve, poor fit]. For the molecule `Cc1ccccc1/C=N/NC(=O)c1sccc1C`, the AC50 under setting [1] was 14.6 µM [falling, partial curve]. Same read-out and setting: then `CSc1ccccc1NC(=O)c1cc(Cl)sc1Cl`, with 1.26 µM [rising, full curve, poor fit]; and `CCN(CC)S(=O)(=O)c1ccc(NC2c3ccccc3C(=O)N2Cc2ccc3c(c2)OCO3)cc1` (stereo unspecified), with 0.0058 µM [falling, full curve, poor fit]; and `O=C1C=C(c2cccc3c2oc2ccccc23)C[C@@H](c2ccc(F)cc2)C1`, with 2.59 µM [rising, full curve]. On to `CN(C)/C=N/NC(=O)c1ccccc1`, for which the concentration at half-maximal activity (AC50) under setting [1] was 1.78 µM [falling, partial curve, poor fit]. In the case of `O=C(Nc1ccccc1)c1ccc(-c2ccc(Br)cc2)o1`, the AC50 under setting [1] was 29.1 µM [falling, single point]. Regarding `COc1cc2c(cc1OC)C1=CC(=O)C(=O)N1C(C)(C)C2`, the concentration at half-maximal activity (AC50) under setting [1] was 2 µM [rising, full curve, poor fit] and the concentration at half-maximal activity (AC50) under setting [2] is 7.94 µM [falling, partial curve, poor fit]. With `COc1ccc(-c2csc(Nc3ccccn3)n2)cc1OC`, under setting [1], the half-maximal activity concentration (AC50) was 22.4 µM [falling, single point].

`COc1ccc2[nH]c3c(N4CCC(O)(c5cccc(C(F)(F)F)c5)CC4)ncnc3c2c1`: the AC50 under setting [1] was 35.5 µM [falling, single point]. As for `C/C(=N/NS(C)(=O)=O)c1ccc2ccccc2c1`, under setting [1], the AC50 is 14.6 µM [rising, partial curve, poor fit]. For `CC(C)c1cc(C(=O)Nc2ccc3c(c2)OCO3)no1`, the AC50 under setting [1] was 4.11 µM [falling, full curve]. `CCOC(=O)c1sc2nc(N3CCCC3)c3c(c2c1N)CC(C)(C)OC3`: the concentration at half-maximal activity (AC50) under setting [1] was 0.316 µM [rising, full curve, poor fit]. As to `COC(=O)C1=C(C)N(CC(C)C)C(=O)/C1=C\c1cccs1`, the AC50 under setting [1] is 1.03 µM [rising, full curve, poor fit]. Regarding `Cc1cc(C)cc(OCC(O)CN2CCC(CN3C(=O)c4cccc5cccc(c45)C3=O)CC2)c1` (stereo unspecified), under setting [1], the half-maximal activity concentration (AC50) was 35.5 µM [rising, single point]. For the molecule `CC(=O)Nc1ccc2nc(-c3ccccn3)[nH]c2c1`, the AC50 under setting [1] was 7.08 µM [falling, partial curve, poor fit]. Still for that read-out and setting: to `Cc1ccc(S(=O)(=O)Nc2c(Cl)c(Cl)c(O)c3ccccc23)cc1` belongs 35.5 µM [falling, single point]; to `CCN1CCN(Cc2ccc(NC(=O)c3cc(NC(=O)c4nccnc4N)cc(OC)c3)cc2C(F)(F)F)CC1`, 35.5 µM [falling, single point]; to `O=C(/C=C\Nc1cccc(F)c1)c1ccc2c(c1)OCO2`, 7.94 µM [falling, partial curve].

For `Cc1oc(-c2ccc(Cl)cc2)nc1CN1CCC(C(=O)NCc2cccnc2)CC1`, the AC50 under setting [1] was 35.5 µM [falling, single point]. Regarding `C/C(=N\Nc1ccc(Cl)cc1)c1ccccn1`, the concentration at half-maximal activity (AC50) under setting [1] was 0.231 µM [rising, full curve, poor fit]. In the case of `CN(C(=O)COC(=O)c1nc(Cl)c(Cl)c(Cl)c1Cl)C1CCS(=O)(=O)C1` (stereo unspecified), the concentration at half-maximal activity (AC50) under setting [1] was 7.08 µM [falling, full curve]. The same measure, in the same setting: to `COc1cccc(C(C(=O)NC2CCCC2)N(Cc2ccccc2OC)C(=O)c2ccco2)c1` (stereo unspecified) belongs 29.1 µM [falling, single point]; to `S=C(NCCc1c[nH]c2ccccc12)NC1CCCCC1`, 1 µM [rising, full curve, poor fit]. For `Cc1ccccc1Nc1nc(N)nc(CSc2nc3ccccc3c(=O)n2CCCO)n1`, under setting [1], the half-maximal activity concentration (AC50) was 3.98 µM [rising, partial curve, poor fit].

On to `CCCNC(=O)c1ccccc1NC(=O)C1COc2ccccc2O1` (stereo unspecified), for which, under setting [1], the AC50 was 11.2 µM [rising, partial curve, poor fit]. Regarding `O=C(NCc1nc2ccccc2[nH]1)C1=C[C@H](c2ccccc2)C[C@H](OCCCCO)O1`, the AC50 under setting [1] is 35.5 µM [rising, partial curve, poor fit]. On the same count and under the same terms, to `CC(C)(C)n1nnnc1C(c1cccs1)N1CCN(c2ccccc2)CC1` (stereo unspecified) belongs 29.1 µM [rising, single point]. Take `Cc1cc(C)n2ncc(-c3cccc(Br)c3)c2n1`: the AC50 under setting [1] is 6.31 µM [rising, partial curve, poor fit].

Consider `COc1ccc(CNC(=O)C/C(C)=N/NC(=O)COc2ccc(C)cc2Br)cc1`, for which the AC50 under setting [1] was 35.5 µM [rising, single point] and the AC50 under setting [2] is 35.5 µM [falling, single point].

As to `CCN1C/C(=N\S(=O)(=O)/N=C2\CN(CC)C(=O)N2CC)N(CC)C1=O`, under setting [1], the concentration at half-maximal activity (AC50) is 2.51 µM [rising, full curve, poor fit].

Turning to `Cc1ccc(C(=O)N2CCN(C(=O)c3ccccc3)C2c2ccc(N(C)C)cc2)cc1` (stereo unspecified), under setting [1], the AC50 is 29.1 µM [rising, single point]. On the same count and under the same terms, then `CCN(CC)S(=O)(=O)c1ccc(N/N=C/c2cc(OC)c(OC)cc2OC)nc1`, with 32.6 µM [rising, partial curve, poor fit]. Same read-out and setting: to `CCCn1nnc(NC(=O)c2cccc(OCc3ccccc3)c2)n1` belongs 20.6 µM [falling, single point]; to `CCCCCc1ccc(-c2ccc(/C=C/C(N)=O)cc2)nc1`, 20.6 µM [falling, partial curve]; to `CN(C)c1ccc(-c2cccc(C3CC=CC4C3C(=O)N(Cc3ccccc3)C4c3ccc4ccccc4c3)c2)cc1` (stereo unspecified), 31.6 µM [rising, single point]. Still for that read-out and setting: then `Cc1cccc2sc(N(CCN3CCOCC3)C(=O)CCS(=O)(=O)c3ccccc3)nc12`, with 0.92 µM [rising, full curve, poor fit]. Take `CN1CCc2c(sc3c2c(=O)n(-c2ccccc2)c2nnc(SCc4ccc(Cl)cc4)n32)C1`: the AC50 under setting [1] was 5.62 µM [falling, single point].

Consider `NNc1nc(-c2ccccc2)cc(-c2ccccc2)n1`, for which the AC50 under setting [1] is 2.51 µM [falling, full curve]. For `O=C(Nc1nc(-c2ccc(Cl)s2)cs1)c1ccccc1`, the AC50 under setting [1] was 4.11 µM [falling, partial curve]. Regarding `Oc1ccc(/C=C/c2ccc3cccc(O)c3n2)cc1Br`, the AC50 under setting [1] is 10 µM [rising, partial curve] and the AC50 under setting [2] was 22.4 µM [falling, single point].

With `CCOc1ccc(C(C)=O)cc1N1C(=O)C2C3C=CC(O3)C2C1=O` (stereo unspecified), the AC50 under setting [1] is 11.2 µM [falling, partial curve].

With `COc1ccc(C)cc1NC(=O)Nc1ccc2c(c1)CCC2`, the AC50 under setting [1] is 0.631 µM [rising, full curve]. Take `CCN(CC)CCN1C(=O)C(=O)/C(=C(/O)c2cnn(-c3ccccc3)c2C)C1c1ccc(C)o1` (stereo unspecified): the AC50 under setting [1] was 5.62 µM [rising, single point]. Turning to `CC(C)Cc1nnc(NC(=O)CSc2nc(O)c(-c3ccccc3)c(=O)[nH]2)s1`, the AC50 under setting [1] is 25.1 µM [falling, single point]. `Cc1ccc(-n2c(C)cc(/C=C3\SC(=O)NC3=O)c2C)cc1`: the AC50 under setting [1] is 22.4 µM [rising, partial curve, poor fit]. For `O=C(c1ccc2nc(N3CCCCC3)sc2c1)N1CCN(c2ccccn2)CC1`, the AC50 under setting [1] is 29.1 µM [rising, single point]. Same read-out and setting: then `O=C(CSc1ncnc2nc[nH]c12)Nc1nnc(SCc2ccc(Cl)c(Cl)c2)s1`, with 35.5 µM [rising, single point]. As to `O=C(Nc1cccc(NC(=O)c2cccs2)c1)c1ccc(Br)cc1`, the AC50 under setting [1] was 8.91 µM [falling, single point]. Turning to `C[C@]12CCC(=O)C=C1CC[C@@H]1[C@@H]2[C@@H](O)C[C@@]2(C)[C@H]1CC[C@]2(O)C(=O)CO`, the concentration at half-maximal activity (AC50) runs as follows: under setting [1], 0.00411 µM [rising, full curve, poor fit]; under setting [2], 2.59 µM [falling, partial curve, poor fit].

As to `COc1ccccc1NC(=O)COC(=O)/C=C/c1cccs1`, the half-maximal activity concentration (AC50) under setting [1] is 0.461 µM [falling, partial curve, poor fit]. The same measure, in the same setting: to `CCOc1ccccc1OCCn1nnc2ccccc21` belongs 16.4 µM [rising, partial curve, poor fit]; to `COc1cccc(Oc2cc(Cl)nc(N)n2)c1`, 10 µM [rising, partial curve, poor fit]; to `C/C(=N\NC(=O)c1ccccc1)c1c(C)[nH]n(-c2ccccc2)c1=O`, 6.31 µM [falling, partial curve].

Source of the values: PubChem BioAssay AID493014 (National Center for Advancing Translational Sciences (NCATS), 2011).
